# Several values for one entry are separate records, joined by “and”; a condition that tells them apart may be missing. Equal values may be shown once. Inconclusive results, whose numbers are uncertain, are shown with a selection of clear calls. For some assays here: Potencies of inconclusive entries are doubtful fits and often do not repeat. Activity calls are given as the source filed them. The calls were made as follows: active = hit-call score of the fitted dose curve at least 0.9, where 1 is the maximum; inconclusive = response in the unintended direction; inactive = score below 0.9.
# Amino acid sequences for entries named in this document (tags omitted). A change or cut given only in a name is not applied to a line headed by its entry.
# UniProt P10634: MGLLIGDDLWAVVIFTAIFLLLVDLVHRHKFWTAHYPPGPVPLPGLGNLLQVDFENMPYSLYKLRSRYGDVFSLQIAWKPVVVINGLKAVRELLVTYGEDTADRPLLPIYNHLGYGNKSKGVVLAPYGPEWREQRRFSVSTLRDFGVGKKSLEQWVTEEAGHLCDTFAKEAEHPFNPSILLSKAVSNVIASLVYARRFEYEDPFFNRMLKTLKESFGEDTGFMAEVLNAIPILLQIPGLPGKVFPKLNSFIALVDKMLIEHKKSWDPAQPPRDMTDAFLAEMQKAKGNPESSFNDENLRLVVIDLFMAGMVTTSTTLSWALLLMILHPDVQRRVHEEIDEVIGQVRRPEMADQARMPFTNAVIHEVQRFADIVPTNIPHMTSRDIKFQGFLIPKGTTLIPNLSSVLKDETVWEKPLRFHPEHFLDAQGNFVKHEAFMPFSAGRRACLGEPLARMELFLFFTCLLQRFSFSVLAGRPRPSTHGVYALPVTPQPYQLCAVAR
# UniProt P37136: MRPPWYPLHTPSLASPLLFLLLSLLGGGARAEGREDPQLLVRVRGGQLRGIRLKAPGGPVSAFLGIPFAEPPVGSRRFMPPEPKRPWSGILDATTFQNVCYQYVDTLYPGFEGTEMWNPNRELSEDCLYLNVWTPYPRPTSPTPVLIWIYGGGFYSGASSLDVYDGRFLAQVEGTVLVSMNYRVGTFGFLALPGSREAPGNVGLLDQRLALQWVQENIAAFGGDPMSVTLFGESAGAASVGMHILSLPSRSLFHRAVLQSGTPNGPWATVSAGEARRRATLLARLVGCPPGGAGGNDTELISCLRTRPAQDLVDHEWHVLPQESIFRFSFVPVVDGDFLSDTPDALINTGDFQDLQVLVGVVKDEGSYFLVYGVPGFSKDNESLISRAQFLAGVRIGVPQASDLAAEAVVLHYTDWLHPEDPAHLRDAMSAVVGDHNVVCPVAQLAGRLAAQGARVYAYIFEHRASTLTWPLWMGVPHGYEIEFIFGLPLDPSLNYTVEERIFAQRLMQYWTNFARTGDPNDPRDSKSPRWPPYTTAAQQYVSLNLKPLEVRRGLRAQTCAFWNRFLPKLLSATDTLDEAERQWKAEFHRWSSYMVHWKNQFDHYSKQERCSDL
# UniProt P08684, whole entry, looked up: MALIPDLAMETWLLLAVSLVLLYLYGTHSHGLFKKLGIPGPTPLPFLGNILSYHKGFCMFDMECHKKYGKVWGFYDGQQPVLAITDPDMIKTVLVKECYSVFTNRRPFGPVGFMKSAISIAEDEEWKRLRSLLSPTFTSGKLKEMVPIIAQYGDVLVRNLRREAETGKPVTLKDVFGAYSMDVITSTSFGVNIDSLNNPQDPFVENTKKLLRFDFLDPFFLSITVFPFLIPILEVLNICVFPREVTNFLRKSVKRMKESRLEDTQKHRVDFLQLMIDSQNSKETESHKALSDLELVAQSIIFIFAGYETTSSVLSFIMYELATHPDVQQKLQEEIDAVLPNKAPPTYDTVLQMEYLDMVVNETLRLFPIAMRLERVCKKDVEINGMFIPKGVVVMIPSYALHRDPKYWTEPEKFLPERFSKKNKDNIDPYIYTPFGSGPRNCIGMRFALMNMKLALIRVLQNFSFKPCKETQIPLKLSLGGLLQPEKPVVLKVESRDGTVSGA
# UniProt O15111: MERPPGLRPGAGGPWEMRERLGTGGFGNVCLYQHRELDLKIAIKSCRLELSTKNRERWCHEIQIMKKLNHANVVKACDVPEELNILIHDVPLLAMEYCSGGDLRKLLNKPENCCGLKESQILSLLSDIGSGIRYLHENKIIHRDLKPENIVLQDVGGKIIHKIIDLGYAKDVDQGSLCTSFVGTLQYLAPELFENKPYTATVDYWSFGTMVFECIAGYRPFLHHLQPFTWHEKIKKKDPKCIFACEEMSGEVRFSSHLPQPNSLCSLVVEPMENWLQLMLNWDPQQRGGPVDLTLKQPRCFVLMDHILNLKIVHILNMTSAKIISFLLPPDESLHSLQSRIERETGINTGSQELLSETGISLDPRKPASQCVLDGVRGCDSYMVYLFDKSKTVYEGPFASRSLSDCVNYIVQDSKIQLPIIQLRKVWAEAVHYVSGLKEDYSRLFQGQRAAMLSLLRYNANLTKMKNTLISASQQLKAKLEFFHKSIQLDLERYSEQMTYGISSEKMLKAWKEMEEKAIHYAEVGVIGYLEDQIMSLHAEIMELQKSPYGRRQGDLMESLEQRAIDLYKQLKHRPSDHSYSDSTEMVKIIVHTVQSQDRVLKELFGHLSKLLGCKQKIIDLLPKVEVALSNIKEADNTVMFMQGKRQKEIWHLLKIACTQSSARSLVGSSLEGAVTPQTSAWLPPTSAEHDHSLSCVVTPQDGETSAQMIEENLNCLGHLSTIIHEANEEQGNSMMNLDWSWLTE
# UniProt P17706: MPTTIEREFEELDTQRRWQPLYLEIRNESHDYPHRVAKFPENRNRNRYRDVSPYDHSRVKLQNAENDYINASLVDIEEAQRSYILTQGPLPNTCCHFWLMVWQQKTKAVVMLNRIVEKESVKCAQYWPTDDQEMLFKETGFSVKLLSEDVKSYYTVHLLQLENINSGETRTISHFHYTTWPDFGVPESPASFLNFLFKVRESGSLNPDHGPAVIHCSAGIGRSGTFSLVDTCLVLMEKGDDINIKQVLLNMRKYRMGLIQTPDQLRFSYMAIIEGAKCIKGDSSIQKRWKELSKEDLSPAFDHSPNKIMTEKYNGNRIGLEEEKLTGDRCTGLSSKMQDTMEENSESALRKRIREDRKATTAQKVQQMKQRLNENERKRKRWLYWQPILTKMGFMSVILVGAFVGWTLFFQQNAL
# UniProt P49137, whole entry, looked up: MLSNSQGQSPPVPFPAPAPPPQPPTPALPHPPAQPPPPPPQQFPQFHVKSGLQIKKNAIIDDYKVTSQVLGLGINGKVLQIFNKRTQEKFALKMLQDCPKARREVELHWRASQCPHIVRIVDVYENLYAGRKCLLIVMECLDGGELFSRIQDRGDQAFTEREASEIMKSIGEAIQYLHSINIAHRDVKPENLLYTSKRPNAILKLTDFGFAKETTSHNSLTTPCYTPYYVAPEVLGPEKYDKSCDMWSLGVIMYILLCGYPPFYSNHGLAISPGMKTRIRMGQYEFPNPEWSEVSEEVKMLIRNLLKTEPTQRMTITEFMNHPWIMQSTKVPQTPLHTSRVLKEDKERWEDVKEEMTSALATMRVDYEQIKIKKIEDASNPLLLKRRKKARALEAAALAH
# UniProt O97775: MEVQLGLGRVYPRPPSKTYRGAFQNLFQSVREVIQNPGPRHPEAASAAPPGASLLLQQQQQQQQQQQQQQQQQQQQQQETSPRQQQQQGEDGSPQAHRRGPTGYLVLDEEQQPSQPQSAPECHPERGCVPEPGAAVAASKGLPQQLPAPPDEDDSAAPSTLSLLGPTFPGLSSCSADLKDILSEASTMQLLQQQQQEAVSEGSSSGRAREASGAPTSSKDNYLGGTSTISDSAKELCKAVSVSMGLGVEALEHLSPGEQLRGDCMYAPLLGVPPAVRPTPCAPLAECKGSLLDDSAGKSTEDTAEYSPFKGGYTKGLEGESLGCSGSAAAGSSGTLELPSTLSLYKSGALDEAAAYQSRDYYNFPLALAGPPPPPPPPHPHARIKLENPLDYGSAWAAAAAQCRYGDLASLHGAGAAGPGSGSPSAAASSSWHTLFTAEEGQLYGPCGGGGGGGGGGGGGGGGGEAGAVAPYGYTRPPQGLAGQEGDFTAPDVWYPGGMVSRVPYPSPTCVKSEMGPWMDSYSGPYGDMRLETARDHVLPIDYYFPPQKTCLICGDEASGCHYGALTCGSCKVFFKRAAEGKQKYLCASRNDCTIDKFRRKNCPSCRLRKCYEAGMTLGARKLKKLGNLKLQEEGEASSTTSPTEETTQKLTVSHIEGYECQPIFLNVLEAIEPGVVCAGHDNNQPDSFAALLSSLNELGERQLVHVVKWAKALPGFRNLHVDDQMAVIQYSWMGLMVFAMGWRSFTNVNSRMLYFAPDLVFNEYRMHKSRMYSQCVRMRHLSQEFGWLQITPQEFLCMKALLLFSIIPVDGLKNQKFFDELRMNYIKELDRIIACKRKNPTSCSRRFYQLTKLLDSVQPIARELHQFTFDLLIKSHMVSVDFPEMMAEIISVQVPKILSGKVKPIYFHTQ
# Columns and labels:
# [1] = molecular target: rat CYP2D2, Cyp2d26 (gene 25053) (UniProt P10634); assay: NVS_ADME_rCYP2D2: NovaScreen (NVS) CYP450-related Enzyme Activity (ADME) Assay for rat CYP2D2 (AID 2283124)
# In short: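 Single-concentration duplicate testing at 10 uM, followed by concentration-response (top 20 uM) for chemicals passing threshold. Enzyme activity of the recombinant rat isoform measured by fluorescence after 0.75 h, acetonitrile as baseline.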
# [2] = read-out: xenobiotic metabolism (CYP1A1), CYP1A1 (gene 1543); assay: CLD_CYP1A1_48hr: CellzDirect (CLD) Gene Expression Assay for xenobiotic metabolism (CYP1A1) at 48 hours (AID 2283705)
# In short: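 CYP1A1 transcript measured by quantitative nuclease protection (chemiluminescent) 48 h after two daily treatments of human hepatocyte cultures, versus 0.2% DMSO. Morphology-based cytotoxicity flags accompany data; two donor preparations used.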
# [3] = CCTE_Shafer_MEA_dev_bursting_electrodes_number: CCTE's Neural Network Formation Assay for Number of Bursting Electrodes, Shafer Lab (AID 2284043);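 also: potency is for loss of bursting electrodes relative to DMSO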
# In short: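 Rat cortical primary neurons, 48-well MEA, 16 electrodes/well; dosing DIV 0–12, re-dosed with full media change DIV 5, 9. Recordings DIV 5/7/9/12, AxIS adaptive spike detector; bursting electrode = ≥1 burst/2 min. AUC across days; loss of signal vs DMSO.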
# [4] = CCTE_Mundy_HCI_iCellGluta_NOG_NeuriteLength: CCTE's Neurite Outgrowth Assay in iCellGluta cells for Neurite Length, Mundy Lab (AID 2284318)
# In short: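 Automated high-content imaging of betaIII-tubulin (Alexa Fluor-488) and Hoechst-stained cells gave neurite length, normalized to the DMSO baseline.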
# [5] = read-out: xenobiotic metabolism (CYP1A1), CYP1A1 (gene 1543); assay: CLD_CYP1A1_24hr: CellzDirect (CLD) Gene Expression Assay for xenobiotic metabolism (CYP1A1) at 24 hours (AID 2283673);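 also: CYP1A1 mRNA level by quantitative nuclease protection with chemiluminescence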
# In short: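 Transcript levels were read at 24 h by qNPA chemiluminescence in human liver primary cells. Cells got daily fresh dosing at multiple concentrations (vehicle 0.2% DMSO). Induction fitted upward against DMSO; phase-contrast cytotoxicity annotated.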
# [6] = read-out: organic anion transporter (SLCO1B1), SLCO1B1 (gene 10599); assay: CLD_SLCO1B1_24hr: CellzDirect (CLD) Gene Expression Assay for organic anion transporter (SLCO1B1) at 24 hours (AID 2283690)
# In short: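 SLCO1B1 mRNA induction read at 24 h by quantitative nuclease protection assay (chemiluminescence), analyzed against DMSO baseline. Human hepatocyte cultures from separate donors received fresh dosing solutions daily; vehicle 0.2% DMSO; cytotoxicity flagged by phase-contrast morphology.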
# [7] = molecular target: rat Acetylcholinesterase (AChE), Ache (gene 83817) (UniProt P37136); assay: NVS_ENZ_rAChE: NovaScreen (NVS) Enzymatic Assay for rat Acetylcholinesterase (AChE) (AID 2283233)
# In short: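 Compounds first screened at 25 uM in duplicate, then those passing threshold tested in concentration series up to 50 uM, against AChE from rat brain membranes. Enzyme activity read by absorbance at 0.33 h; inhibition scored versus DMSO.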
# [8] = read-out: Cytochrome P450 3A4 (Homo sapiens) (UniProt P08684); assay: CLD_CYP3A4_48hr: CellzDirect (CLD) Gene Expression Assay for xenobiotic metabolism (CYP3A4) at 48 hours (AID 2283698)
# In short: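 CYP3A4 induction read by qNPA chemiluminescence after 48 h, with fresh dosing solutions on consecutive days, in cultured human hepatocytes (two donors). Vehicle 0.2% DMSO as baseline; microscopy-based cytotoxicity annotated yes/no alongside data.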
# [9] = Tanguay_ZF_120hpf_SNOU_legacy: (Legacy) Oregon State University Tanguay Lab 120 Hour Post-fertilization zebrafish Assay for Snout Malformation (AID 2283637)
# In short: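 Binary brightfield scoring of snout malformation at 120 hpf. Dechorionated 5D wild-type embryos, one per well, static exposure from 6 hpf at 28C, sealed and dark; final DMSO 0.64% (vol/vol), DMSO as baseline; 5uM trimethyltin chloride positive control.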
# [10] = molecular target: human IkappaB Kinase alpha (IKKa), CHUK (gene 1147) (UniProt O15111); assay: NVS_ENZ_hIKKa: NovaScreen (NVS) Enzymatic Assay for human IkappaB Kinase alpha (IKKa) (AID 2283167)
# In short: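 Compounds first run in duplicate at 25 uM, those meeting threshold (e.g. 30% inhibition) retested to maximum 50 uM. Enzyme activity of recombinant IKKa measured by fluorescence with electrophoretic mobility shift separation, 1 hour post-dosing, DMSO baseline.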
# [11] = molecular target: human Protein Tyrosine Phosphatase Non-receptor Type 2 (PTPN2), PTPN2 (gene 5771) (UniProt P17706); assay: NVS_ENZ_hPTPN2: NovaScreen (NVS) Enzymatic Assay for human Protein Tyrosine Phosphatase Non-receptor Type 2 (PTPN2) (AID 2283207)
# In short: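 Activity measured as fluorescence after mobility-shift separation of substrate and product, 1 h after compound. Duplicate single-point 25 uM primary testing, concentration series for actives; inhibition scored as signal loss relative to DMSO baseline.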
# [12] = test system: rabbit Platelet Activating Factor Receptor (PAF), gene 100354046; assay: NVS_GPCR_rabPAF: NovaScreen (NVS) G Protein-Coupled Receptor Assay for rabbit Platelet Activating Factor Receptor (PAF) (AID 2283287)
# In short: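 Rabbit platelet membrane preparation; radioligand displacement read by filter-based scintillation counting 1 h after dosing, loss of signal versus DMSO. Primary screen in duplicate at 25 uM, actives followed up in concentration series.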
# [13] = test system: turtle Androgen Receptor (AR), gene 101947425; assay: ATG_trAR_XSP2: Attagene TRANS-FACTORIAL Multi-Species (XSP2) HepG2 Assay for turtle Androgen Receptor (AR) (AID 2283815);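 also: reporter mRNA from a Gal4 chimera of turtle AR measured by RT-PCR; potency for gain of reporter signal meaning activation above DMSO baseline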
# In short: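 Reporter transcripts were quantified via RT-PCR and capillary electrophoresis and fitted upward against DMSO. Transiently transfected human HepG2 cells carrying NR-Gal4 chimeras were exposed 24 h, with 3 nM 6-alpha-fluorotestosterone plus 1.5 nM norgestrel added.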
# [14] = test system: chicken Androgen Receptor (AR), gene 422165; assay: ATG_chAR_XSP2: Attagene TRANS-FACTORIAL Multi-Species (XSP2) HepG2 Assay for chicken Androgen Receptor (AR) (AID 2283819);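 also: hits raise reporter mRNA above DMSO so potency is for activation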
# In short: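 Readout is reporter mRNA induction via RT-PCR/capillary electrophoresis after 24 h chemical exposure, positive direction relative to DMSO. Transiently transfected HepG2 express chimeric chicken AR–GAL4; AR stimulated by 3 nM 6-alpha-fluorotestosterone and 1.5 nM norgestrel.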
# [15] = ATG_M_19_XSP2: Attagene TRANS-FACTORIAL Multi-Species (XSP2) HepG2 Assay for M32 Transcription Factor (Internal Marker) (AID 2283822)
# In short: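 Internal background marker in a multi-species nuclear receptor TRANS panel: transfected HepG2 cells exposed 24 h, with 3 nM 6-alpha-fluorotestosterone and 1.5 nM norgestrel present. Readout is RT-PCR of reporter transcripts resolved by capillary electrophoresis, gain-of-signal versus DMSO.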
# [16] = test system: turtle Thyroid Hormone Receptor, alpha (TRa), gene 101949057; assay: ATG_trTRa_XSP2: Attagene TRANS-FACTORIAL Multi-Species (XSP1) HepG2 Assay for turtle Thyroid Hormone Receptor, alpha (TRa) (AID 2283834);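 also: hits raise reporter mRNA over the DMSO baseline so AC50 marks activators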
# In short: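 Readout: reporter mRNA induction, fluorescence after RT-PCR, HpaI digestion and capillary electrophoresis. Transiently transfected HepG2, exogenous NR-Gal4 chimera driving GAL4-UAS reporter, 24 h compound exposure. Activity fitted upward relative to DMSO baseline.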
# [17] = molecular target: human MAP Kinase-Activated Protein Kinase 2 (MAPKAPK2), MAPKAPK2 (gene 9261) (UniProt P49137); assay: NVS_ENZ_hMAPKAPK2: NovaScreen (NVS) Enzymatic Assay for human MAP Kinase-Activated Protein Kinase 2 (MAPKAPK2) (AID 2283178)
# In short: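 Chemicals screened in duplicate at 25 uM, then to 50 uM top concentration in concentration-response, against recombinant human MAPKAPK2; substrate conversion read 1 hr post-dosing by fluorescence after electrophoretic mobility-shift separation, loss-of-signal relative to DMSO.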
# [18] = molecular target: Tyrosine-protein phosphatase non-receptor type 11 (Homo sapiens) (UniProt Q06124); assay: NVS_ENZ_hPTPN11: NovaScreen (NVS) Enzymatic Assay for human Protein Tyrosine Phosphatase Non-receptor Type 11 (PTPN11) (AID 2283202)
# In short: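 Compounds first tested in duplicate at 25 uM; those reaching ~30% inhibition rerun in singleton concentration-response, top 50 uM. Phosphatase activity measured after 0.5 h by fluorescence with mobility-shift separation, relative to DMSO.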
# [19] = read-out: alkyl and aryl transferase (GSTA2), GSTA2 (gene 2939); assay: CLD_GSTA2_24hr: CellzDirect (CLD) Gene Expression Assay for alkyl and aryl transferase (GSTA2) at 24 hours (AID 2283693)
# In short: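 GSTA2 transcript levels were quantified by quantitative nuclease protection assay in primary human hepatocytes 24 h after daily dosing with fresh solutions at multiple concentrations; 0.2% DMSO vehicle as baseline, cytotoxicity flagged morphologically.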
# [20] = molecular target: chimpanzee Androgen Receptor (AR), AR (gene 747460) (UniProt O97775); assay: NVS_NR_cAR: NovaScreen (NVS) Nuclear Receptor Binding Assay for chimpanzee Androgen Receptor (AR) (AID 2283346);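 also: radioligand displacement from AR measured by scintillation counting in a cell-free assay; a loss of bound radioligand signal versus DMSO counts as binding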
# In short: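 Radioligand binding to chimpanzee AR expressed in Sf9/Sf21 cells, cell-free, measured 72 h after dosing by lysate-based scintillation counting. Loss of signal vs DMSO; initial duplicate screen at 25 uM, actives retested in concentration series.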
smiles,measurement,setting,value
CC(C)N(C(=O)SCC(Cl)=C(Cl)Cl)C(C)C,AC50,[1],inconclusive: 10 µM
same,outcome,[2],inactive
same,AC50,[3],active: 15 µM
same,AC50,[4],active: 20.2 µM
CC(C)Nc1nc(Cl)nc(NC(C)C)n1,AC50,[5],active: 11.4 µM
same,AC50,[6],inconclusive: 0.454 µM
CC1(C)CON(Cc2ccccc2Cl)C1=O,AC50,[7],inconclusive: 25 µM
same,AC50,[8],active: 5.13 µM
same,AC50,[2],inconclusive: 20 µM
Fc1ccc(Oc2ccnc3cc(Cl)cc(Cl)c23)cc1,outcome,[9],inactive
O=C(O)COc1ccc(Cl)cc1Cl,outcome,[10],inactive
same,AC50,[11],inconclusive: 25 µM
same,AC50,[12],inconclusive: 0.185 µM
CCOP(=S)(OCC)Oc1ccc2c(C)c(Cl)c(=O)oc2c1,outcome,[1],inactive
same,AC50,[13],inconclusive: 26.9 µM
same,AC50,[14],inconclusive: 12.2 µM
same,AC50,[15],inconclusive: 100 µM
same,AC50,[16],active: 64.7 µM
CCOC(=O)CC(SP(=O)(OC)OC)C(=O)OCC (stereo not given),outcome,[1],inactive
same,outcome,[6],inactive
same,AC50,[3],inconclusive: 0.01 µM
CCCC(=NOCC)C1=C(O)CC(CC(C)SCC)CC1=O (stereo not given),outcome,[17],inactive
same,AC50,[18],inconclusive: 6.05 µM
same,outcome,[11],inactive
same,outcome,[12],inactive
same,AC50,[19],inconclusive: 20 µM
same,AC50,[8],active: 20 µM
Nc1nc(N)nc(NC2CC2)n1,AC50,[8],inconclusive: 0.0004 µM
same,AC50,[2],active: 11.6 µM
C[C@@H]1C[C@@H]([C@H](O)CC2CC(=O)NC(=O)C2)C(=O)[C@@H](C)C1,AC50,[20],inconclusive: 6.07 µM
CC1(C)[C@H](C(=O)O[C@H](C#N)c2cccc(Oc3ccccc3)c2)[C@@H]1/C=C(\Cl)C(F)(F)F,AC50,[20],inconclusive: 4.28 µM
same,AC50,[3],active: 12.9 µM
CCC(=O)Nc1ccc(Cl)c(Cl)c1,AC50,[7],inconclusive: 15.3 µM
same,AC50,[6],inconclusive: 20 µM
same,AC50,[13],inconclusive: 26.6 µM and inconclusive: 19.4 µM
same,AC50,[14],inconclusive: 60.2 µM and inconclusive: 78.7 µM
same,AC50,[15],inconclusive: 162 µM
same,outcome,[16],inactive
Nc1ccc(-c2ccc(N)c(Cl)c2)cc1Cl,AC50,[20],inconclusive: 0.00789 µM
Oc1ccccc1Cl,AC50,[9],inconclusive: 202 µM
O=C(O)C(F)(F)C(F)(F)C(F)(F)C(F)(F)C(F)(F)C(F)(F)C(F)(F)F,outcome,[18],inactive
same,outcome,[11],inactive
same,AC50,[12],inconclusive: 25 µM
same,AC50,[19],inconclusive: 20 µM
same,AC50,[13],inconclusive: 19.8 µM
same,outcome,[14],inactive
same,outcome,[15],inactive
same,AC50,[16],inconclusive: 100 µM
same,outcome,[4],inactive
FC(F)(F)C(F)(F)C(F)(F)C(F)(F)C(F)(F)C(F)(F)CCI,AC50,[10],inconclusive: 12.5 µM

# 2 records drawn at random from the list so far:
smiles,measurement,setting,value
CCOC(=O)CC(SP(=O)(OC)OC)C(=O)OCC (stereo not given),outcome,[6],inactive
Nc1nc(N)nc(NC2CC2)n1,AC50,[2],active: 11.6 µM
